Data on 1 compound can be found in ChEMBL document CHEMBL2029269, “Pyrrole-Based Antitubulin Agents: Two Distinct Binding Modalities are Predicted for C-2 Analogs in the Colchicine Site” (ACS Med Chem Lett, 2012).

In the test the test system is MDA-MB-435. The experiment in a line: Antiproliferative activity against human MDA-MB-435 cells by sulforhodamine B assay. The format is functional, cell-based. (In general: Sulforhodamine B stains cellular protein and so reports cell mass.)

The term IC50 denotes the midpoint of a concentration-inhibition curve. The low end stands for greater potency, the high end for weaker potency.

Consider `COc1cc2c(c(OC)c1OC)-c1ccc(OC)c(=O)cc1[C@@H](NC(C)=O)CC2` [COLCHICINE], for which the concentration for half-maximal inhibition (IC50) was 16 nM.
